Taken from: PubChem BioAssay AID1259272 (Sanger Institute, 2017)
The deposit covers 794 reagents; this is a random part of them. Of all reagents, 7 (0.88%) were called active. 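Essential calls reflect knock-down without drug only, not synergy with drugs; drug exposure length not given.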 No viability above 1 is reported: the scale is capped. Not all columns of the deposit are shown. Not stated in the record: the amount of reagent, the time to read-out.

- Aim: 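Find kinases needed for SW1116 growth and partners for drug combinations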 (primary screen)
- Cell system: SW1116 human colorectal cancer cells
- Reagent: siRNA pool against human genes
- Challenge: anchor drugs BYL719 (1 µM), cetuximab (5 µg/ml) or trametinib (10 nM), or DMSO vehicle; exposure length not given
- Measured: 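Replicate-averaged viability versus control-pool wells, with a robust z-score for siRNA alone and a per-drug synergy score (BYL719, cetuximab, trametinib)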
- Direction: viability z-score, no drug: higher = more cells remaining; strongly negative means essential gene; viability, no drug: higher = more viable cells; synergy score with BYL719: higher = stronger synthetic-lethal synergy with the drug
- Active means: 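a robust z-score under -3 with siRNA and no drug marks the gene essential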
- Calls: active = essential (knock-down alone); inactive = no change

Target gene	viability z-score, no drug	viability, no drug (fraction of control)	synergy score with BYL719	Call
FN3KRP (GeneID 79672)	-1.69	0.73	-0.0208	inactive
LMBR1 (GeneID 64327)	-1.9	0.707	-0.289	inactive
PI4KA (GeneID 5297)	0.842	1	-0.027	inactive
MAST4 (GeneID 375449)	0.605	0.975	0.0522	inactive
CLK4 (GeneID 57396)	0.582	0.972	-0.0591	inactive
CALM3 (GeneID 808)	-1.03	0.8	-0.093	inactive
WNK2 (GeneID 65268)	0.713	0.986	-0.0232	inactive
GUCY2EP (GeneID 390226)	0.842	1	0.000169	inactive
CDKL1 (GeneID 8814)	0.842	1	-0.0788	inactive
TLK1 (GeneID 9874)	0.467	0.96	0.101	inactive
TTK (GeneID 7272)	-0.364	0.872	-0.186	inactive
PRKAG2 (GeneID 51422)	0.842	1	-0.0159	inactive
LIMK1 (GeneID 3984)	0.365	0.949	0.0327	inactive
JAK2 (GeneID 3717)	-3.05	0.586	-0.123	active
SGK3 (GeneID 23678)	-0.756	0.83	-0.114	inactive
STK33 (GeneID 65975)	-1.63	0.737	-0.179	inactive
MARK3 (GeneID 4140)	0.355	0.948	-0.0365	inactive
SRC (GeneID 6714)	0.768	0.992	-0.0583	inactive
MYLK (GeneID 4638)	-2.03	0.694	-0.244	inactive
ALPK1 (GeneID 80216)	0.408	0.954	-0.057	inactive
PLK4 (GeneID 10733)	-0.383	0.87	-0.033	inactive
LMTK1 (GeneID 9625)	-0.532	0.854	-0.0794	inactive
TNK2 (GeneID 10188)	0.00218	0.911	-0.0632	inactive
STRADB (GeneID 55437)	-0.507	0.856	-0.182	inactive
PRKAR1B (GeneID 5575)	0.247	0.937	-0.00789	inactive
PRKAG3 (GeneID 53632)	-2.09	0.687	-0.0292	inactive
CAMK1G (GeneID 57172)	0.404	0.953	-0.00551	inactive
CIT (GeneID 11113)	-2.46	0.648	-0.011	inactive
PIK3R5 (GeneID 23533)	0.0421	0.915	-0.00728	inactive
CDK10 (GeneID 8558)	-1.88	0.71	-0.136	inactive
PRKD1 (GeneID 5587)	-2	0.697	-0.258	inactive
DGKQ (GeneID 1609)	0.842	1	0.0469	inactive
NEK1 (GeneID 4750)	0.842	1	-0.00542	inactive
RPS6KB2 (GeneID 6199)	0.134	0.925	-0.0353	inactive

Individual results from above.
FN3KRP (GeneID 79672), synergy score with BYL719: -0.0208
Under “Call”, TTK (GeneID 7272) shows inactive
